No constants are given. Whether binding was seen depends on the method and setting.

For the test, the target named is outer envelope protein of molar mass 16 kDa (OEP16) (UniProt Q41050). Briefly: NMR 15N relaxation (T1Z, T2; overall rotational correlation time); U-15N OEP16 in 0.4% SDS micelles, 20 mM NaH2PO4 pH 6.5, 100 mM NaCl, 310 K, 600 MHz; correlation time 12.5 ns against 18-19 ns expected for a dimer; both purified.

B1: outer envelope protein of molar mass 16 kDa (OEP16) (protein, UniProt Q41050 1-146)
chain: MPRSSFSGSLSSPKLDVVIDMGNPFLNLTVDGFLKIGAVAATRSVAEDTFHIIRKGSISSNDFEKSLKKMCKEGAYWGAIAGVYVGMEYGVERIRGTRDWKNAMFGGAVTGALVSAASNNKKDKIAVDAITGAAIATAAEFINYLT
Turning to B1, the binding entry is “no binding (tested: 1.5 mM (typical 15N sample))”.

The values are drawn from paper PMC3812221.
